Data reported in the supplement of paper PMC10849652.
The other results are listed elsewhere or left out.

Chains of the proteins cited; added tags and fusions are not shown. Lines headed by an entry give the natural chain unless they say otherwise; changes in a name come on top.
UniProt Q9BV19: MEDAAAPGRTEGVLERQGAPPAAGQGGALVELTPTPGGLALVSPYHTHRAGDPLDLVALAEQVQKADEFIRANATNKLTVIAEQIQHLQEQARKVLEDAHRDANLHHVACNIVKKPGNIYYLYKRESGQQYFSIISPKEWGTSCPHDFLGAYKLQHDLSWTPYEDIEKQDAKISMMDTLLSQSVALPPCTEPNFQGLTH
UniProt Q9H0W9: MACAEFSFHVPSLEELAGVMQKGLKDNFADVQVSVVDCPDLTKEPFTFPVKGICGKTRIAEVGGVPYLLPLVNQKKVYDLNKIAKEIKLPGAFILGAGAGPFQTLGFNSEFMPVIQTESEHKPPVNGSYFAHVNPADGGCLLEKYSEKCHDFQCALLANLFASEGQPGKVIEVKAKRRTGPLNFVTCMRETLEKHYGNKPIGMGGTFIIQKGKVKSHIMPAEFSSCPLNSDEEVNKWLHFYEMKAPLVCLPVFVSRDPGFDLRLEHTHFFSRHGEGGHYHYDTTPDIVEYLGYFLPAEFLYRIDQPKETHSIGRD
UniProt A6NDU8: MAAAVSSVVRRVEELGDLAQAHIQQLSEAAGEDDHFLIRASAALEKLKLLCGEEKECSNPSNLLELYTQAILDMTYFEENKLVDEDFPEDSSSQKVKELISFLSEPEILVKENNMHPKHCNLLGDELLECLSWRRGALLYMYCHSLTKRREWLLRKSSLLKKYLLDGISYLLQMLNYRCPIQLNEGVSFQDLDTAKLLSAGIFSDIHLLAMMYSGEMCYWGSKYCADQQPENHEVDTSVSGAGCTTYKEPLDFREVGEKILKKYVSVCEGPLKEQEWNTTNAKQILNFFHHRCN
UniProt Q9Y376: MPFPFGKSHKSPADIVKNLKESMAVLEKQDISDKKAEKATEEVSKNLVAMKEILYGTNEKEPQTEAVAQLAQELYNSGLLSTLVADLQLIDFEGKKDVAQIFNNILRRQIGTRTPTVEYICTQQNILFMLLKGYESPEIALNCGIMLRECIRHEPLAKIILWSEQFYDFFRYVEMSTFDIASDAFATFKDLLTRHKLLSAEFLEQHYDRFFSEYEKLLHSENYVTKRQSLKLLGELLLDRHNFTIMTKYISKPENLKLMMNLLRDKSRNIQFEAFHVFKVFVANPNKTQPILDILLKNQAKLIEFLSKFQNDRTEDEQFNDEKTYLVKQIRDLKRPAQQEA
UniProt O43683: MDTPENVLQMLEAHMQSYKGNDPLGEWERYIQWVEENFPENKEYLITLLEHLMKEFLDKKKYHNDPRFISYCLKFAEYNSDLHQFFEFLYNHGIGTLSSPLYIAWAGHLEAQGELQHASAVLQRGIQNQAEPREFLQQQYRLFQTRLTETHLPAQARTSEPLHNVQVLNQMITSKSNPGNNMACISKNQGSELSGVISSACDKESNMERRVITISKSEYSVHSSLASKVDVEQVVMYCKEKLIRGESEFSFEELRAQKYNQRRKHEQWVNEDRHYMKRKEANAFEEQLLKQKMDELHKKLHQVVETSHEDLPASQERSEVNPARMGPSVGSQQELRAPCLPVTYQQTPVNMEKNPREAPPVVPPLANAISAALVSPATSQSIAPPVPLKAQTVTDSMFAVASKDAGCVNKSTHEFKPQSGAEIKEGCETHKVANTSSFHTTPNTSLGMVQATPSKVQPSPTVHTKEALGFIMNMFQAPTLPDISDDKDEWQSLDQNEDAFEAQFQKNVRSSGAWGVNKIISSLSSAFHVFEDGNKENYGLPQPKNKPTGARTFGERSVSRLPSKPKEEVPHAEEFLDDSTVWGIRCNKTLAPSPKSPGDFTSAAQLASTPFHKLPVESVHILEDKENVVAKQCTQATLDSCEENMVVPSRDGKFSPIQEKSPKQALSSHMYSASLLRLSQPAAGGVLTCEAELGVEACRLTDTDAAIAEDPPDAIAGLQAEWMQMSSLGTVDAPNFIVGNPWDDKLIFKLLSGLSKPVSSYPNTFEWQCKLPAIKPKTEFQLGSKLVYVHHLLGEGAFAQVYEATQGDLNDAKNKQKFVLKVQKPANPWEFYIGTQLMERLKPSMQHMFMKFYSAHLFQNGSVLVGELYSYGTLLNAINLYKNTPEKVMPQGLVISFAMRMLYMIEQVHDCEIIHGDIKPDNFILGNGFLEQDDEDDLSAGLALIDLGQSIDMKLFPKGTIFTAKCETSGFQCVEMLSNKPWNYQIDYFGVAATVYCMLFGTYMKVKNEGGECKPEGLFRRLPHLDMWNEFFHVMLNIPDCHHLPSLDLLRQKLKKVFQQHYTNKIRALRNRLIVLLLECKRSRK
UniProt Q86VP6: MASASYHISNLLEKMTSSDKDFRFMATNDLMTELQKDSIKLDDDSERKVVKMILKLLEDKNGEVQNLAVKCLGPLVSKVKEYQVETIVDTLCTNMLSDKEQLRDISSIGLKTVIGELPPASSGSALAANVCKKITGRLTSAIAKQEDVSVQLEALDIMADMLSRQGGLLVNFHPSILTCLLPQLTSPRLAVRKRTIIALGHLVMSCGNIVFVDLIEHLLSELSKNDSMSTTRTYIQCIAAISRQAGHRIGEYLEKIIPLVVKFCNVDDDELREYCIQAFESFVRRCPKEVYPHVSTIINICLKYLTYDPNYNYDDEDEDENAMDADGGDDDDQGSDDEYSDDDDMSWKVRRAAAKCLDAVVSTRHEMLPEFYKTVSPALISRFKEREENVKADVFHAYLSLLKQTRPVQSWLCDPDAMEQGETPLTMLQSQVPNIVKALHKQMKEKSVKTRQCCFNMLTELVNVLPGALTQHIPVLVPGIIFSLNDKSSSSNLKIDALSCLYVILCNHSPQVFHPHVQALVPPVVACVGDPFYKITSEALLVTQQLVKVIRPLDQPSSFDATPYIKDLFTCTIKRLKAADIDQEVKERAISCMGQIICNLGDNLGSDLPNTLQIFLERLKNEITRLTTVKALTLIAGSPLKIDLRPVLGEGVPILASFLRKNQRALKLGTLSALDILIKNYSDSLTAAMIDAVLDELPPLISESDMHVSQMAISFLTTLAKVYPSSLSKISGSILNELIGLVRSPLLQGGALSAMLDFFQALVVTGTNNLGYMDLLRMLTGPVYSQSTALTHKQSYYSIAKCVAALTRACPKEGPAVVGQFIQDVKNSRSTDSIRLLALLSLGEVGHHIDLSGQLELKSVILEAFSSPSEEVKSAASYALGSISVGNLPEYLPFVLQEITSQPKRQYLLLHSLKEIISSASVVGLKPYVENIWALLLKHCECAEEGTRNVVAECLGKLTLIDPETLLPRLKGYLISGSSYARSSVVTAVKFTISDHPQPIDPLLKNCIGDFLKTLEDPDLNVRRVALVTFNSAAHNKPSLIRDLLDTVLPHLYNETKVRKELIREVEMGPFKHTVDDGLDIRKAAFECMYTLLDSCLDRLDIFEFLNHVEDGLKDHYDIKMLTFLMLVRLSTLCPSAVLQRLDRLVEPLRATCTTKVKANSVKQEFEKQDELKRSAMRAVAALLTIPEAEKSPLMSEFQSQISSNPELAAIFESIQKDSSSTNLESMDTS
UniProt Q14444, whole entry, looked up: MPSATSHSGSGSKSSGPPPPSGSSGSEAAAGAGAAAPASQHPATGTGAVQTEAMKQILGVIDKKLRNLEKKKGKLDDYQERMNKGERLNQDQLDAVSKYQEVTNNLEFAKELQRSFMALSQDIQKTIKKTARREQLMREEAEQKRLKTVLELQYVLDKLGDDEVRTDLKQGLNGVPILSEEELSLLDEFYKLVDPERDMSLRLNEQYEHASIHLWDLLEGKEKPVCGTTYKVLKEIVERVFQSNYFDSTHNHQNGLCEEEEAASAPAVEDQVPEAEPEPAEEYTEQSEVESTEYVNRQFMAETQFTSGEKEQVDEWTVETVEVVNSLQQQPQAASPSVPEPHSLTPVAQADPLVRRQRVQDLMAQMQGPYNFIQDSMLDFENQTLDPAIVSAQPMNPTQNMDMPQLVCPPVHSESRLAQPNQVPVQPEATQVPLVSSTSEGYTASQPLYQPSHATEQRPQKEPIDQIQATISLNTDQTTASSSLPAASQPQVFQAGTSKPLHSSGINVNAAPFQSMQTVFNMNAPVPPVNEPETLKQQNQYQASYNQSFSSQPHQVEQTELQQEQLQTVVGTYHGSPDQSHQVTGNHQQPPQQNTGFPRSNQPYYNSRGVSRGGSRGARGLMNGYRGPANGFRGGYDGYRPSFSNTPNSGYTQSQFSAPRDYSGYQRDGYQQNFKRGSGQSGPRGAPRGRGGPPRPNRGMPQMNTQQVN
UniProt O95873: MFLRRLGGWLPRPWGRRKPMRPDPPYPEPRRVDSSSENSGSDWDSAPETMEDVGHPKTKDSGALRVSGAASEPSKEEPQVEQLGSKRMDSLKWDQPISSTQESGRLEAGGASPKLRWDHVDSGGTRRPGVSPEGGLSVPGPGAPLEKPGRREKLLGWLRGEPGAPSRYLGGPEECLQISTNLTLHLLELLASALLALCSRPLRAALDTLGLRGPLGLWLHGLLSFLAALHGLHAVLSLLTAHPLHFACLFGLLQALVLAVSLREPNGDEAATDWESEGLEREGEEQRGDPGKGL
UniProt Q9BVC5: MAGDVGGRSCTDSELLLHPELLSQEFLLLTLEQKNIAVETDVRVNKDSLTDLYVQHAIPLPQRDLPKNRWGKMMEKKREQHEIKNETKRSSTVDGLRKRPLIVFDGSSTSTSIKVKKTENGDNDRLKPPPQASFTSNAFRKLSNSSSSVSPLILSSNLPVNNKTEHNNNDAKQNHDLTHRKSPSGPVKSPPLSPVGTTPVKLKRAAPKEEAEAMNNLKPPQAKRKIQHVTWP
UniProt P27797, whole entry, looked up: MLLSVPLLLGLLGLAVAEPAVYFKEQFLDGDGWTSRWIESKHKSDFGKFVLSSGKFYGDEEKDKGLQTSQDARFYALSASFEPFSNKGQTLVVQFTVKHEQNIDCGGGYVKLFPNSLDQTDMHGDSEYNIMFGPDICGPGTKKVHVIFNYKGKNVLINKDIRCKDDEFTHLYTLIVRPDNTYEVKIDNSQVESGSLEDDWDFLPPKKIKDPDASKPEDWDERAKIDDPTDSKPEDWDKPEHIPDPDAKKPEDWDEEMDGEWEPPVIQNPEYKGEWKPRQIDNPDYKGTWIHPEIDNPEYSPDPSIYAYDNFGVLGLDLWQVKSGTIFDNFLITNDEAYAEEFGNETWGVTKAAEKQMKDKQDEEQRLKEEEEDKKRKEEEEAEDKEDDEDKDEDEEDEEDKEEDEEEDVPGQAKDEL
UniProt Q8N6N3: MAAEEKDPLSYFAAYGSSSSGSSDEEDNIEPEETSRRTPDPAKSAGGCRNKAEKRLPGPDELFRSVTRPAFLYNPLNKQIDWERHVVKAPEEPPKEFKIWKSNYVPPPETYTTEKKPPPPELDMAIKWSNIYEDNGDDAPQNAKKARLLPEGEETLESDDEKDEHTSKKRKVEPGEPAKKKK
UniProt P35219: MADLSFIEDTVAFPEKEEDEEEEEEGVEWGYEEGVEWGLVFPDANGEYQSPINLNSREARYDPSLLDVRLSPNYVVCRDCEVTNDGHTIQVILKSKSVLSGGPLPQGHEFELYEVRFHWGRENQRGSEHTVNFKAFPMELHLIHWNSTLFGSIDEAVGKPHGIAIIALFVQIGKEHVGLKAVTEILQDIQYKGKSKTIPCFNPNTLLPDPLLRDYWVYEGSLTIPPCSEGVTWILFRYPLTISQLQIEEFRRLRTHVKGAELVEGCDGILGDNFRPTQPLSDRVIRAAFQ
UniProt Q8TCD1: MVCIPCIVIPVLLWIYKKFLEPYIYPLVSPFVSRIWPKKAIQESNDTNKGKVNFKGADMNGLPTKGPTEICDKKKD
UniProt Q8N5I9: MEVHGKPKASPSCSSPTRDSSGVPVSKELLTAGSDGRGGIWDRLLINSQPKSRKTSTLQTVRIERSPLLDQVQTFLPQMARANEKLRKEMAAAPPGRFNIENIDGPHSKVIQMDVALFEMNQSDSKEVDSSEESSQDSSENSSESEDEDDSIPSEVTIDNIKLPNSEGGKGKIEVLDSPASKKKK

Tests used:
Assay in all cases: log2 fold change, soluble protein after heating vs DMSO (PISA); higher = thermal stabilisation; K562 lysate, 10 uM; active = over 0.2 and 3.5 SD of the protein, either way, in both replicates (recomputed)
ibrutinib = compound: C=CC(=O)N1CCC[C@@H](n2nc(-c3ccc(Oc4ccccc4)cc3)c3c(N)ncnc32)C1 [ibrutinib]
Outline: (§1)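 Pellets of K562 cells were dounce-homogenised in PBS pH 7.4 with 1 mM MgCl2, and the crude extract was held at 1 mg/mL protein for a 30 min treatment with 10 μM compound. Aliquots were heated for 3 min over 48°C-58°C and pooled before NP-40 was added to 0.5% at 4°C. The supernatant from 21,000xg for 90 min was quantified by TMTpro 16plex LC-MS/MS with channel sums equalised. Values are reported from duplicates as log-two fold change in thermal stability relative to solvent controls.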

[1] = compound: CC(=O)c1cnc2ccc(-c3cc(Cl)c(O)c(Cl)c3)nc2c1N[C@H]1CC[C@H](CN(C)C)CC1
Outline: as §1

ralimetinib = compound: CC(C)(C)Cn1c(N)nc2ccc(-c3[nH]c(C(C)(C)C)nc3-c3ccc(F)cc3)nc21 [ralimetinib]
Outline: as §1

[2] = compound: CC(C)(O)CC(=O)NCCn1ccc2ncnc(Nc3ccc(Oc4cccc(C(F)(F)F)c4)c(Cl)c3)c21
Outline: as §1

[3] = compound: CC(C)C1=C2N=C(C=C(N2N=C1)NCC3=CC=CC=C3)NCCCCCCN
Outline: as §1

[4] = compound: CC1=C(C(CC(=O)N1)C2=CC=C(C=C2)C(F)(F)F)C(=O)NC3=C(C=C4C(=C3)C=NN4)F
Outline: as §1

[5] = compound: CC1=C(C2=C(C=C1)C(=O)C3=CC=CC=C3N2CCCN)C
Outline: as §1

[6] = compound: CC1=C(C=C(C=C1)NC(=O)C2=CC(=CC=C2)C(C)(C)C#N)NC3=CC4=C(C=C3)N=CN(C4=O)C
Outline: as §1

[7] = compound: CC1=C(C=C(C=C1)NC(=O)C2=CC(=CC=C2)N(C)C)NC(=O)C3=CC=C(C=C3)O
Outline: as §1

[8] = compound: CC1=CC=C(C=C1)SC2=C3C=C(SC3=CN=C2)C(=O)N
Outline: as §1

vemurafenib = compound: CCCS(=O)(=O)Nc1ccc(F)c(C(=O)c2c[nH]c3ncc(-c4ccc(Cl)cc4)cc23)c1F [vemurafenib]
Outline: as §1

[9] = compound: CCCS(=O)(=O)Nc1ccc(F)c(C(=O)c2c[nH]c3ncc(Cl)cc23)c1F
Outline: as §1

barasertib = compound: CCN(CCCOc1ccc2c(Nc3cc(CC(=O)Nc4cccc(F)c4)[nH]n3)ncnc2c1)CCOP(=O)(O)O [barasertib]
Outline: as §1

[10] = compound: CC[C@@H]1C(=O)N(C)c2cnc(Nc3ccc(C(=O)NC4CCN(C)CC4)cc3OC)nc2N1C1CCCC1
Outline: as §1

volasertib = compound: CC[C@@H]1C(=O)N(C)c2cnc(Nc3ccc(C(=O)N[C@H]4CC[C@H](N5CCN(CC6CC6)CC5)CC4)cc3OC)nc2N1C(C)C [volasertib]
Outline: as §1

[11] = compound: CCn1c(C(=O)N(C2CC2)C2CC2)cc2c3c(ncn3C)c(Nc3cc(C)n(C)n3)nc21
Outline: as §1

[12] = compound: CCn1cc(-c2ccnc3[nH]c(-c4cccc(CN(C)C)c4)cc23)c(-c2ccc(NC(=O)N(C)C)cc2)n1
Outline: as §1

[13] = compound: CN1CCC(CNc2ccc3ncc(-c4cccc(OC(F)(F)F)c4)n3n2)CC1
Outline: as §1

saracatinib = compound: CN1CCN(CCOc2cc(OC3CCOCC3)c3c(Nc4c(Cl)ccc5c4OCO5)ncnc3c2)CC1 [saracatinib]
Outline: as §1

sotrastaurin = compound: CN1CCN(c2nc(C3=C(c4c[nH]c5ccccc45)C(=O)NC3=O)c3ccccc3n2)CC1 [sotrastaurin]
Outline: as §1

Measured: log2 fold change

C1orf50 (UniProt Q9BV19)
inactive: ibrutinib 0.185 | [1] 0.009 | ralimetinib 0.034 | [2] -0.055 | [3] 0.12 | [4] -0.007 | [5] 0.013 | [6] 0.046 | [7] 0.061 | [8] 0.004 | vemurafenib 0.013 | [9] -0.025 | barasertib 0.157 | [10] 0.016 | volasertib 0.102 | [11] 0.006 | [12] -0.118 | [13] -0.072 | saracatinib 0.011 | sotrastaurin -0.016

C11orf54 (UniProt Q9H0W9)
inactive: ibrutinib -0.007 | [1] -0.013 | ralimetinib -0.004 | [2] -0.006 | [3] -0.005 | [4] -0.007 | [5] 0.01 | [6] 0.015 | [7] -0.004 | [8] 0.003 | vemurafenib 0.005 | [9] -0.015 | barasertib -0.037 | [10] 0.015 | volasertib 0.002 | [11] -0.018 | [12] 0.002 | [13] 0.016 | saracatinib 0.016 | sotrastaurin -0.019

C5orf51 (UniProt A6NDU8)
inactive: ibrutinib 0.052 | [1] -0.008 | ralimetinib 0.001 | [2] -0.027 | [3] 0.014 | [4] -0.005 | [5] 0.004 | [6] 0.042 | [7] 0.042 | [8] -0.001 | vemurafenib -0.002 | [9] 0.009 | barasertib 0.046 | [10] -0.014 | volasertib -0.029 | [11] 0.053 | [12] 0.036 | [13] -0.137 | saracatinib 0.016 | sotrastaurin 0.036

CAPZA2 (UniProt P47755)
inactive: ibrutinib 0.003 | [1] 0.021 | ralimetinib 0.034 | [2] 0.003 | [3] -0.015 | [4] -0.001 | [5] -0.037 | [6] 0.02 | [7] 0.005 | [8] -0.01 | vemurafenib -0.032 | [9] 0.007 | barasertib -0.02 | [10] -0.053 | volasertib -0.017 | [11] -0.013 | [12] 0.024 | [13] -0.015 | saracatinib 0.001 | sotrastaurin -0.011

CAB39 (UniProt Q9Y376)
inactive: ibrutinib -0.017 | [1] 0.014 | ralimetinib -0.003 | [2] 0.009 | [3] -0.002 | [4] -0.039 | [5] 0.013 | [6] -0.013 | [7] -0.02 | [8] -0.013 | vemurafenib -0.048 | [9] -0.009 | barasertib -0.034 | [10] -0.01 | volasertib 0.035 | [11] 0.011 | [12] -0.008 | [13] 0.009 | saracatinib 0.009 | sotrastaurin 0.01

BUB1 (UniProt O43683)
inactive: ibrutinib -0.051 | [1] 0.029 | ralimetinib 0.116 | [2] -0.053 | [3] 0.042 | [4] -0.013 | [5] -0.052 | [6] 0.017 | [7] 0.052 | [8] -0.039 | vemurafenib 0.077 | [9] -0.063 | barasertib 0.034 | [10] -0.088 | volasertib -0.073 | [11] -0.027 | [12] -0.159 | [13] 0.06 | saracatinib 0.041 | sotrastaurin -0.019

CAND1 (UniProt Q86VP6)
inactive: ibrutinib -0.004 | [1] -0.003 | ralimetinib 0.004 | [2] -0.021 | [3] 0.007 | [4] -0.004 | [5] -0.001 | [6] 0.02 | [7] -0.013 | [8] -0.022 | vemurafenib 0.012 | [9] 0 | barasertib -0.016 | [10] 0.025 | volasertib 0.018 | [11] -0.021 | [12] -0.106 | [13] 0.08 | saracatinib -0.019 | sotrastaurin -0.011

CAPRIN1 (UniProt Q14444)
inactive: ibrutinib 0.025 | [1] -0.023 | ralimetinib 0.013 | [2] 0.022 | [3] -0.004 | [4] -0.044 | [5] -0.001 | [6] -0.018 | [7] -0.033 | [8] -0.023 | vemurafenib -0.009 | [9] -0.02 | barasertib -0.052 | [10] 0.02 | volasertib 0.023 | [11] -0.013 | [12] 0.132 | [13] -0.018 | saracatinib -0.02 | sotrastaurin -0.029

C6orf47 (UniProt O95873)
inactive: ibrutinib -0.014 | [1] -0.029 | ralimetinib 0.043 | [2] 0.028 | [3] -0.027 | [4] -0.092 | [5] -0.037 | [6] -0.011 | [7] -0.032 | [8] 0.031 | vemurafenib 0.048 | [9] -0.004 | barasertib 0.016 | [10] 0.044 | volasertib -0.015 | [11] -0.013 | [12] -0.269 | [13] 0.116 | saracatinib 0.037 | sotrastaurin 0.079

C2orf49 (UniProt Q9BVC5)
inactive: ibrutinib 0.038 | [1] -0.011 | ralimetinib -0.013 | [2] -0.009 | [3] 0.014 | [4] 0.034 | [5] 0.005 | [6] 0.002 | [7] 0.011 | [8] 0.028 | vemurafenib -0.021 | [9] 0.005 | barasertib -0.089 | [10] 0.042 | volasertib -0.003 | [11] 0.011 | [12] -0.076 | [13] 0.024 | saracatinib -0.005 | sotrastaurin 0.01

CALR (UniProt P27797)
inactive: ibrutinib -0.021 | [1] 0.004 | ralimetinib -0.02 | [2] 0 | [3] -0.017 | [4] -0.004 | [5] 0.015 | [6] -0.046 | [7] -0.007 | [8] -0.001 | vemurafenib 0.001 | [9] -0.024 | barasertib -0.051 | [10] 0.016 | volasertib -0.006 | [11] -0.002 | [12] 0.088 | [13] -0.021 | saracatinib -0.003 | sotrastaurin 0.009

Quoted from the entries so far (2 entries):
CAND1 (UniProt Q86VP6)
inactive: ibrutinib -0.004 | [1] -0.003 | ralimetinib 0.004 | [2] -0.021 | [3] 0.007 | [4] -0.004 | [5] -0.001 | [6] 0.02 | [7] -0.013 | [8] -0.022 | vemurafenib 0.012 | [9] 0 | barasertib -0.016 | [10] 0.025 | volasertib 0.018 | [11] -0.021 | [12] -0.106 | [13] 0.08 | saracatinib -0.019 | sotrastaurin -0.011

CAPRIN1 (UniProt Q14444)
inactive: ibrutinib 0.025 | [1] -0.023 | ralimetinib 0.013 | [2] 0.022 | [3] -0.004 | [4] -0.044 | [5] -0.001 | [6] -0.018 | [7] -0.033 | [8] -0.023 | vemurafenib -0.009 | [9] -0.02 | barasertib -0.052 | [10] 0.02 | volasertib 0.023 | [11] -0.013 | [12] 0.132 | [13] -0.018 | saracatinib -0.02 | sotrastaurin -0.029

The list continues.

C1orf52 (UniProt Q8N6N3)
inactive: ibrutinib 0.035 | [1] -0.007 | ralimetinib -0.039 | [2] 0.048 | [3] 0.022 | [4] 0.044 | [5] -0.033 | [6] 0.014 | [7] -0.003 | [8] -0.015 | vemurafenib 0.004 | [9] 0.021 | barasertib -0.032 | [10] 0.035 | volasertib 0.042 | [11] 0.03 | [12] -0.066 | [13] 0.084 | saracatinib -0.032 | sotrastaurin -0.026

CAD (UniProt P27708)
inactive: ibrutinib -0.009 | [1] -0.016 | ralimetinib 0.03 | [2] -0.002 | [3] 0.005 | [4] -0.005 | [5] 0.026 | [6] 0.009 | [7] 0.009 | [8] 0.018 | vemurafenib 0.005 | [9] 0.026 | barasertib -0.004 | [10] -0.037 | volasertib -0.069 | [11] 0.012 | [12] -0.085 | [13] 0.003 | saracatinib -0.004 | sotrastaurin 0.003

CA8 (UniProt P35219)
inactive: ibrutinib 0.038 | [1] -0.006 | ralimetinib 0.026 | [2] -0.002 | [3] 0.019 | [4] 0.02 | [5] -0.004 | [6] 0.065 | [7] -0.029 | [8] 0.011 | vemurafenib -0.017 | [9] 0.038 | barasertib -0.01 | [10] 0.023 | volasertib -0.026 | [11] -0.002 | [12] -0.003 | [13] 0.042 | saracatinib -0.005 | sotrastaurin -0.005

C18orf32 (UniProt Q8TCD1)
inactive: ibrutinib 0.069 | [1] -0.014 | ralimetinib 0.053 | [2] -0.048 | [3] -0.069 | [4] -0.078 | [5] -0.021 | [6] 0.074 | [7] -0.056 | [8] 0.032 | vemurafenib 0.164 | [9] -0.044 | barasertib -0.019 | [10] 0.125 | volasertib 0.054 | [11] 0.054 | [12] -0.073 | [13] 0 | saracatinib 0.006 | sotrastaurin -0.112

C12orf45 (UniProt Q8N5I9)
inactive: ibrutinib 0.027 | [1] 0.003 | ralimetinib 0.005 | [2] 0.014 | [3] 0.033 | [4] -0.021 | [5] -0.02 | [6] -0.018 | [7] 0.02 | [8] -0.043 | vemurafenib -0.015 | [9] -0.017 | barasertib -0.022 | [10] 0.009 | volasertib 0.008 | [11] 0.023 | [12] -0.243 | [13] 0.116 | saracatinib -0.022 | sotrastaurin -0.026
